Inconclusive results, whose numbers are uncertain, are shown with a selection of clear calls. For some of these results: Potencies of inconclusive entries are doubtful fits and often do not repeat. Active and inactive are the calls of the source. The calls were made as follows: active = hit-call score of the fitted dose curve at least 0.9, where 1 is the maximum; inconclusive = response in the unintended direction; inactive = score below 0.9.
Assays:
[1] = target: human SRC Proto-Oncogene, Non-receptor Tyrosine Kinase (SRC), SRC (gene 6714) (UniProt P12931); assay: NVS_ENZ_hSRC: NovaScreen (NVS) Enzymatic Assay for human SRC Proto-Oncogene, Non-receptor Tyrosine Kinase (SRC) (AID 2283223)
Procedure, shortened: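 Compounds passing 30% inhibition at 25 uM (duplicate) were titrated to a top concentration of 50 uM. Enzyme activity read by fluorescence with mobility-shift substrate/product separation after 1 h; DMSO baseline.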

The chains behind the UniProt entries cited, without tags or fusion partners. Where a name states a change or a piece, a line headed by the entry shows the natural chain unless it says otherwise.
UniProt P03372, whole entry, looked up: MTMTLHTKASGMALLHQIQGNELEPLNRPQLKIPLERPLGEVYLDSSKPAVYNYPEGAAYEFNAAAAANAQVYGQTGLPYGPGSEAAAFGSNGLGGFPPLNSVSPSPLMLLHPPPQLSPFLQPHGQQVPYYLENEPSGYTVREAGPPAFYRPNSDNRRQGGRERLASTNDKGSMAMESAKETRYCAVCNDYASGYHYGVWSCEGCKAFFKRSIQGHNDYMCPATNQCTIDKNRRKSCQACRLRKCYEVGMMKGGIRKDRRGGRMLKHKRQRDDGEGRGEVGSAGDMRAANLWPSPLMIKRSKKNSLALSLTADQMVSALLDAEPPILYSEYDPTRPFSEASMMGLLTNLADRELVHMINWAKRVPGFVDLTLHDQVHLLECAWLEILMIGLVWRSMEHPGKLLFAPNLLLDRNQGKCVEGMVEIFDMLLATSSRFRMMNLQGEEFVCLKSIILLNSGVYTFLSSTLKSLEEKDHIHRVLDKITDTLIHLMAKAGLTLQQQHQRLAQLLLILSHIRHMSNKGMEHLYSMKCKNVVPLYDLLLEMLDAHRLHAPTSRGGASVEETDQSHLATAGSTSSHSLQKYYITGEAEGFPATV
UniProt Q05941, whole entry, looked up: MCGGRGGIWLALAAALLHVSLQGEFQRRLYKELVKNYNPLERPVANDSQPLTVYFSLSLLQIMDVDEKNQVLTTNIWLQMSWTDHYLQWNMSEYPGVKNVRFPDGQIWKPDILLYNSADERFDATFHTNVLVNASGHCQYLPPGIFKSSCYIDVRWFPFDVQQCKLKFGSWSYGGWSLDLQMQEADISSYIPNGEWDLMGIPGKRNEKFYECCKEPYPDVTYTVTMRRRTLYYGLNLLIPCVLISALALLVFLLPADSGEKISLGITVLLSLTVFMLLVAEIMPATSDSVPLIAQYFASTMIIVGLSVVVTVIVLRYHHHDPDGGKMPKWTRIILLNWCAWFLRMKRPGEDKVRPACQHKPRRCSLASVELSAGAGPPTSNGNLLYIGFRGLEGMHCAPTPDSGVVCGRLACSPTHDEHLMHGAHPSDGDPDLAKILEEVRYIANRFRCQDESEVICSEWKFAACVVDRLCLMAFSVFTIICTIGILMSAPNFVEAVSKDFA
UniProt Q9Y233: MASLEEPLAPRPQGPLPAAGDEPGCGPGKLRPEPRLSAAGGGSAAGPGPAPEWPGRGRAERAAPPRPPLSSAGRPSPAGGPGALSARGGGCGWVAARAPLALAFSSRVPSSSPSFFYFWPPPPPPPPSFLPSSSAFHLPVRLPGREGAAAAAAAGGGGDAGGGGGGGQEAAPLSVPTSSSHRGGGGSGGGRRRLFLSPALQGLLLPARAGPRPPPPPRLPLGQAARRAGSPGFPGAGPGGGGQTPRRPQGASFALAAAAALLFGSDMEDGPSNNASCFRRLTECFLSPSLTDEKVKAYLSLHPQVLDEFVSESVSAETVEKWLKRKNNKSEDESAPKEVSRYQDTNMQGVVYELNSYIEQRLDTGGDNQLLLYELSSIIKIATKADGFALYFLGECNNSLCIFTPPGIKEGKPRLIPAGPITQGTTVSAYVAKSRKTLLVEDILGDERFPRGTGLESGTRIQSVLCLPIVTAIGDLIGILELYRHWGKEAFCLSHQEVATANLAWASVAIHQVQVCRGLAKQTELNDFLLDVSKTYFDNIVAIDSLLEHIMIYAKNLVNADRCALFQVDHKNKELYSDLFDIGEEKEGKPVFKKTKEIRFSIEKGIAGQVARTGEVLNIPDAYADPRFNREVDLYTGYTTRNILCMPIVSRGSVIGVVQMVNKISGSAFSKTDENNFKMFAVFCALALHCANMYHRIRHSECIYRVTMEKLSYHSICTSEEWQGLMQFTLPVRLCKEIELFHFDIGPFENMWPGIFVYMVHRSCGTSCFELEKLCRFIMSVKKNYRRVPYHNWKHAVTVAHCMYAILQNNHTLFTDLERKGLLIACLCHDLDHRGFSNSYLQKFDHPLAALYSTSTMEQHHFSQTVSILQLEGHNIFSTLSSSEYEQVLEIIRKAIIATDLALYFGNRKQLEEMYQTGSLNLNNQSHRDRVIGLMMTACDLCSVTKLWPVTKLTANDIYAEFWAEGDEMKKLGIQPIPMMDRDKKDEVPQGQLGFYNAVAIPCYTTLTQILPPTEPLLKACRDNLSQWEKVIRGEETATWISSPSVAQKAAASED
UniProt P14780: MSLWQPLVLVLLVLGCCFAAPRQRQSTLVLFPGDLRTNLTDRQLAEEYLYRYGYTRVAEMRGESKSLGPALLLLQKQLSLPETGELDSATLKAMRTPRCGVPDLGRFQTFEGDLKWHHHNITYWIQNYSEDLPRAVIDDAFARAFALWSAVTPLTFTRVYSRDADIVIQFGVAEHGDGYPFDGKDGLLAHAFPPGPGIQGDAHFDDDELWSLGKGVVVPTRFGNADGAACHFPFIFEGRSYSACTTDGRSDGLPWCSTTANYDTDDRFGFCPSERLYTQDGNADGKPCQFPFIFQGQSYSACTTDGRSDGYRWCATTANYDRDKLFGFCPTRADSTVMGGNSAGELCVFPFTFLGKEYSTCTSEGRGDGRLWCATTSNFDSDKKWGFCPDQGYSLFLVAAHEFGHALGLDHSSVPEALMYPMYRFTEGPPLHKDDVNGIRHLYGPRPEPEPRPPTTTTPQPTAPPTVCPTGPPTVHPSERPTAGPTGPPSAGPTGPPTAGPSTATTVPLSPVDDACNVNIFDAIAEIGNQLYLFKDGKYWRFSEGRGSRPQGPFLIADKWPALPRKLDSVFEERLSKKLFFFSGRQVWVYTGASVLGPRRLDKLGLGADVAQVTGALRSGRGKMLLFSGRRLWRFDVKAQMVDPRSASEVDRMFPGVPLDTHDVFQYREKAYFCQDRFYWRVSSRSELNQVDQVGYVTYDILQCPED
UniProt P49662: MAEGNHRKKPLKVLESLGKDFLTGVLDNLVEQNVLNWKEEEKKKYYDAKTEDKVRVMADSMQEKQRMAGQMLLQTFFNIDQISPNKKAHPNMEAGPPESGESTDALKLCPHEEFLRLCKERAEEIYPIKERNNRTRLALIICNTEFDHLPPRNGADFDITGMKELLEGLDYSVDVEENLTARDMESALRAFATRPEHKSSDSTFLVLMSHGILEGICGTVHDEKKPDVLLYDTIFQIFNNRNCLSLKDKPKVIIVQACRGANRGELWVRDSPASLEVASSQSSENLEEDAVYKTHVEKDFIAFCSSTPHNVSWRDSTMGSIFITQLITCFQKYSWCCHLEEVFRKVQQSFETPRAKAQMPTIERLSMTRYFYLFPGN
UniProt P29317, whole entry, looked up: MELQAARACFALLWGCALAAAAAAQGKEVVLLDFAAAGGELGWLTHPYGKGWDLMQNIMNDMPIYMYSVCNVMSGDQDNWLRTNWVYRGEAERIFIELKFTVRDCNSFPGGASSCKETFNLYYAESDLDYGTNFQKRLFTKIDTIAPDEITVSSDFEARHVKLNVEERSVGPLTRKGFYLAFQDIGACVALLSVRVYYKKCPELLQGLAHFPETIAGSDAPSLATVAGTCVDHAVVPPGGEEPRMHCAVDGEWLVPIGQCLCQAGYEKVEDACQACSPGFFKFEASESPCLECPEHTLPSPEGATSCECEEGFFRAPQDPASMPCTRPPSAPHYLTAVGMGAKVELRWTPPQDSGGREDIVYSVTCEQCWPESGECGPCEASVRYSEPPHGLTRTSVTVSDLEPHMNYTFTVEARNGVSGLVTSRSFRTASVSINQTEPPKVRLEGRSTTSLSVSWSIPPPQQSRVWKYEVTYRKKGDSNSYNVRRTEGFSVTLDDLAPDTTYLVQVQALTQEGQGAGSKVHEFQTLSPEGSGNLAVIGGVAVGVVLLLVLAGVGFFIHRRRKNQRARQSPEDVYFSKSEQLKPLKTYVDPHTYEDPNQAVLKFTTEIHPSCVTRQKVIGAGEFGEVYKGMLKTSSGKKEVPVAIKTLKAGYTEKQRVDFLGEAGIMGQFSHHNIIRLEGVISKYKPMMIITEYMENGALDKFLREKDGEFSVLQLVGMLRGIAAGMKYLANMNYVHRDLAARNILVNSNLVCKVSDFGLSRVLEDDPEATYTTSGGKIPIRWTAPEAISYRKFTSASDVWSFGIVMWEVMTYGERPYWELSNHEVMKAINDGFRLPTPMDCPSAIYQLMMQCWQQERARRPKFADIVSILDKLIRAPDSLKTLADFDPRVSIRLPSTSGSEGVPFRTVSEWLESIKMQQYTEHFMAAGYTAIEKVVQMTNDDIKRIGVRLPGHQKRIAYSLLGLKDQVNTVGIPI
UniProt P29074: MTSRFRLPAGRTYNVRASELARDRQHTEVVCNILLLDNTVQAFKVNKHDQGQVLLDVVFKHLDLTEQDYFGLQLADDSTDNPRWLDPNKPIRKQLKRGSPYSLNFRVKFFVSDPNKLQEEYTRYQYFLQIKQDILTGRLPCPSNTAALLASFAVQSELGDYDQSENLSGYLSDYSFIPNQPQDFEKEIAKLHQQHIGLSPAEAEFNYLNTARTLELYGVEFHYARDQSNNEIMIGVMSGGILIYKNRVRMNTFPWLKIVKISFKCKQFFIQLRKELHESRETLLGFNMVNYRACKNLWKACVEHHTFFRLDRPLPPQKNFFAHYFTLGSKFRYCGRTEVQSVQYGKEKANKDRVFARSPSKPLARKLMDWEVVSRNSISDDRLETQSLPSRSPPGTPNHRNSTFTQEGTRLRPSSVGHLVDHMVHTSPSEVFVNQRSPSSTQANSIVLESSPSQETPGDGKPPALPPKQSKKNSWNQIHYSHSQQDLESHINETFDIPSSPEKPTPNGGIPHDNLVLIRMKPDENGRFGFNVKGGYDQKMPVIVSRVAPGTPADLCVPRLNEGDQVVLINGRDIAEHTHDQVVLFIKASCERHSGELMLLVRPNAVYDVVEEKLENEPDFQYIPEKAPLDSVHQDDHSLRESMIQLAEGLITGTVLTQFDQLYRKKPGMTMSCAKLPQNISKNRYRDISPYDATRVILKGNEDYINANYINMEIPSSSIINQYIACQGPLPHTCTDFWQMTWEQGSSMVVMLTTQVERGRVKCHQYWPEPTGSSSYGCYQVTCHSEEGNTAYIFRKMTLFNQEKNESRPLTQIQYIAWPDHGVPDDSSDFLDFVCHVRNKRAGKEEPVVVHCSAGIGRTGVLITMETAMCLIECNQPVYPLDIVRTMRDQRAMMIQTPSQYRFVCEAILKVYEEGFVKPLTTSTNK
UniProt P35916, whole entry, looked up: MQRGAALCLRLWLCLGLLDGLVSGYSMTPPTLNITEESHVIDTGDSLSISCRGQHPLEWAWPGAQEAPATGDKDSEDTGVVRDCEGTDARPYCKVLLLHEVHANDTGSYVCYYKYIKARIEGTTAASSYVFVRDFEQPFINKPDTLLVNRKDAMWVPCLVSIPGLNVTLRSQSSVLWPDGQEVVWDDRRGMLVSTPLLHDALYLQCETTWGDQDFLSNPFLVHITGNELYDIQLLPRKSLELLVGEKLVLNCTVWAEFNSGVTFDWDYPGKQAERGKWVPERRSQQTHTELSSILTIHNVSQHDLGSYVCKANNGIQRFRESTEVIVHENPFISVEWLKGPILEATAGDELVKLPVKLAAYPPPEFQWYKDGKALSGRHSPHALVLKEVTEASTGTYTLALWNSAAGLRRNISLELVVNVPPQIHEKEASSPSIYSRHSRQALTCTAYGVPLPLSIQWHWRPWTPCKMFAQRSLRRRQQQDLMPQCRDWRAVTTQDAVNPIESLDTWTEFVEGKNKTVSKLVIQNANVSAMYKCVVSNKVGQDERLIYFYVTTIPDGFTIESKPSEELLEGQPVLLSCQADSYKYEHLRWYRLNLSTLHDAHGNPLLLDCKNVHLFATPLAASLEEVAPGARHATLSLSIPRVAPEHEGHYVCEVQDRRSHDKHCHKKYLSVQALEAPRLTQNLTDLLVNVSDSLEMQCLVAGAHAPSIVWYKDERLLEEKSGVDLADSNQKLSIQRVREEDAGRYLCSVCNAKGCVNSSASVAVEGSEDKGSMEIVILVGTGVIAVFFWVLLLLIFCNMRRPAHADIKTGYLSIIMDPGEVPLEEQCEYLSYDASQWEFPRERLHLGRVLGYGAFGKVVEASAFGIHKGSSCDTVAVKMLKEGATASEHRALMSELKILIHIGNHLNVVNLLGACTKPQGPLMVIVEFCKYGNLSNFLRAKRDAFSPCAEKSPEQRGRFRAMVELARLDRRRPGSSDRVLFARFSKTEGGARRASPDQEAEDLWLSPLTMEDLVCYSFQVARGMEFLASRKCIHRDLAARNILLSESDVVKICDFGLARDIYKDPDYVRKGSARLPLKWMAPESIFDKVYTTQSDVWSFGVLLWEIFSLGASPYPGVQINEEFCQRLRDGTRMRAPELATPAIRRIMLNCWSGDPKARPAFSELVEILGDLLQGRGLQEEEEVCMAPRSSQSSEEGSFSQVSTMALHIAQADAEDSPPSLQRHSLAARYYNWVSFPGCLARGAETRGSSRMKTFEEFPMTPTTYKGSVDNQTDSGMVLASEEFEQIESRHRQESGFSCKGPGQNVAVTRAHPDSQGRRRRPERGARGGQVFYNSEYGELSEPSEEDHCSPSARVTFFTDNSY

[2] = target: Estrogen receptor (Homo sapiens) (UniProt P03372); assay: NVS_NR_hER: NovaScreen (NVS) Nuclear Receptor Binding Assay for human Estrogen Receptor (ER) (AID 2283348)
Procedure, shortened: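 Cell-free MCF7-derived ER preparation, specific radioligand displaced by test compound, read by scintillation counting 18 h post-dosing. Duplicate single-point 25 uM screen, then concentration-response confirmation; DMSO baseline.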

[3] = target: rat Neonicotinoid receptor (NNR), Chrna7 (gene 25302) (UniProt Q05941); assay: NVS_LGIC_rNNR_BungSens: NovaScreen (NVS) Ligand-Gated Ion Channel Assay for rat Neonicotinoid receptor (NNR) (AID 2283315)
Procedure, shortened: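 Rat cortical membrane preparation incubated 2.5 h with tritiated or iodinated radioligand and test chemical. Bound radioactivity was filtered and counted by scintillation, and displacement was analysed against DMSO.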

[4] = target: human Protein Tyrosine Phosphatase Receptor Type B (PTPRB), PTPRB (gene 5787) (UniProt P23467); assay: NVS_ENZ_hPTPRB: NovaScreen (NVS) Enzymatic Assay for human Protein Tyrosine Phosphatase Receptor Type B (PTPRB) (AID 2283211)
Procedure, shortened: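 Recombinant human PTPRB with a fluorescent substrate, product separated by electrophoretic mobility shift; read 1 h after dosing. Primary screen in duplicate at 25 uM; actives then retested in concentration series; loss of signal versus DMSO.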

[5] = target: Tyrosine-protein phosphatase non-receptor type 13 (Homo sapiens) (UniProt Q12923); assay: NVS_ENZ_hPTPN13: NovaScreen (NVS) Enzymatic Assay for human Protein Tyrosine Phosphatase Non-receptor Type 13 (PTPN13) (AID 2283205)
Procedure, shortened: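 Screened first at a single 25 uM in duplicate; compounds passing the threshold (e.g. 30% inhibition) were rerun in concentration series, top 50 uM. Recombinant enzyme, fluorescent substrate, mobility-shift separation, 0.5 h read. Data fitted as inhibition relative to DMSO.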

[6] = target: human Muscarinic, M4 Receptor, CHRM4 (gene 1132) (UniProt P08173); assay: NVS_GPCR_hM4: NovaScreen (NVS) G Protein-Coupled Receptor Assay for human Muscarinic, M4 Receptor (AID 2283274)
Procedure, shortened: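 Filter-based scintillation counting of radioligand bound to CHO-expressed human M4 preparations after 1 h; loss of signal fitted versus DMSO. Initial duplicate testing at 25 uM, concentration-response follow-up for actives.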

[7] = target: human Caspase 2 (CASP2), CASP2 (gene 835) (UniProt P42575); assay: NVS_ENZ_hCASP2: NovaScreen (NVS) Enzymatic Assay for human Caspase 2 (CASP2) (AID 2283135)
Procedure, shortened: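 Single-point duplicate testing at 25 uM preceded concentration series topping at 50 uM. Activity of the recombinant E. coli-derived protease was followed by fluorescent substrate cleavage 1 h post-dosing, relative to DMSO.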

[8] = test system: bovine Histamine 1 Receptor (H1), gene 281231; assay: NVS_GPCR_bH1: NovaScreen (NVS) G Protein-Coupled Receptor Assay for bovine Histamine 1 Receptor (H1) (AID 2283246)
Procedure, shortened: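 Hits from a 25 uM duplicate primary screen were retested in concentration series (top 50 uM); binding measured as scintillation-counted displacement of radioligand from bovine cerebellar membranes after 1 h, normalised to DMSO.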

[9] = target: human Phosphodiesterase 10 (PDE10), PDE10A (gene 10846) (UniProt Q9Y233); assay: NVS_ENZ_hPDE10: NovaScreen (NVS) Enzymatic Assay for human Phosphodiesterase 10 (PDE10) (AID 2283195)
Procedure, shortened: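 Fluorescence readout after mobility-shift separation of substrate and product, 1 h reaction with recombinant human enzyme. Single-concentration duplicates at 25 uM, then concentration-response up to 50 uM for chemicals reaching threshold; DMSO baseline.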

[10] = target: human Matrix Metalloproteinase-9 (MMP9), MMP9 (gene 4318) (UniProt P14780); assay: NVS_ENZ_hMMP9: NovaScreen (NVS) Enzymatic Assay for human Matrix Metalloproteinase-9 (MMP9) (AID 2283190);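 also: cell-free recombinant MMP9 protease activity read by fluorescent substrate signal; active means inhibition seen as loss of fluorescence signal versus DMSO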
Procedure, shortened: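 Inhibition was scored as loss of fluorescence signal against DMSO controls. The recombinant protease was exposed to chemicals for 1 hour before reading; initial testing used 25 uM in duplicate.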

[11] = target: human Caspase 4 (CASP4), CASP4 (gene 837) (UniProt P49662); assay: NVS_ENZ_hCASP4: NovaScreen (NVS) Enzymatic Assay for human Caspase 4 (CASP4) (AID 2283143)
Procedure, shortened: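 Compounds were first tested in duplicate at 25 uM, and hits were titrated singly to a 50 uM maximum. Recombinant protease from E. coli was read by fluorescence 2 h post-dose, and activity loss was fitted against the DMSO baseline.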

[12] = target: Ratio of Nucleoli Translocation and Cytoplasm, AR (gene 367) (UniProt P10275); assay: UPITT_HCI_U2OS_AR_TIF2_Nucleoli_Cytoplasm_Ratio_Antagonist: University of Pittsburgh U2OS Androgen Receptor-Transcriptional Intermediary Factor 2 (AR-TIF2) Antagonism High Content Imaging Assay for Ratio of Nucleoli Translocation and Cytoplasm (AID 2283999);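 also: antagonists lower the DHT-driven ratio of nucleolar to cytoplasmic red signal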
Procedure, shortened: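 Compounds were added to U2OS cells carrying red-fluorescent AR and green-fluorescent TIF2, first at 20 uM, with hits confirmed in triplicate and titrated from 0.195 to 50 uM. Nucleolar versus cytoplasmic AR-RFP fluorescence was then quantified by imaging, with analysis relative to DHT.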

[13] = target: human Ephrin type-A Receptor 2 (EphA2), EPHA2 (gene 1969) (UniProt P29317); assay: NVS_ENZ_hEphA2: NovaScreen (NVS) Enzymatic Assay for human Ephrin type-A Receptor 2 (EphA2) (AID 2283155)
Procedure, shortened: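 Enzyme activity of recombinant EphA2 read by fluorescence after mobility-shift separation, 1 h after dosing. Chemicals first tested at 25 uM (duplicate); those passing threshold run as concentration series, top 50 uM, single replicate, relative to DMSO.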

[14] = target: human Protein Tyrosine Phosphatase Non-receptor Type 4 (PTPN4), PTPN4 (gene 5775) (UniProt P29074); assay: NVS_ENZ_hPTPN4: NovaScreen (NVS) Enzymatic Assay for human Protein Tyrosine Phosphatase Non-receptor Type 4 (PTPN4) (AID 2283208)
Procedure, shortened: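 Screened in duplicate at 25 uM, with hits then titrated to a top concentration of 50 uM. Recombinant Sf9-derived PTPN4 turnover was read by fluorescence with electrophoretic separation, 1.33 h after compound addition. DMSO served as baseline.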

[15] = target: human Norepinephrine Transporter (NET), SLC6A2 (gene 6530) (UniProt P23975); assay: NVS_TR_hNET: NovaScreen (NVS) Transporter Assay for human Norepinephrine Transporter (NET) (AID 2283377);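 also: cell-free membrane protein extracted from CHO cells expressing human NET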;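 as to AC50: displacement of radioligand from human NET seen as loss of scintillation signal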
Procedure, shortened: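 Single-concentration duplicate screen at 25 uM, then concentration-response for actives; displacement of specific radioligand from human NET in CHO membrane extracts, filter-based scintillation detection at 1 h relative to DMSO.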

[16] = target: human Vasopressin 1A Receptor (V1A), AVPR1A (gene 552) (UniProt P37288); assay: NVS_GPCR_hV1A: NovaScreen (NVS) G Protein-Coupled Receptor Assay for human Vasopressin 1A Receptor (V1A) (AID 2283284)
Procedure, shortened: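 Single-concentration duplicate screen at 25 uM, with concentration-response follow-up (top 50 uM) for actives. The assay measured displacement of a radioligand from human platelet-derived receptor after 1.5 h, detected by filtration and scintillation counting.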

[17] = test system: zebrafish Estrogen Receptor (ER2a), gene 317734; assay: ATG_zfER2a_XSP2: Attagene TRANS-FACTORIAL Multi-Species (XSP2) HepG2 Assay for zebrafish Estrogen Receptor (ER2a) (AID 2283818);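 also: hits raise reporter mRNA so AC50 reflects activation of zebrafish ER2a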
Procedure, shortened: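 Multiplexed trans-reporter readout: RT-PCR then capillary electrophoresis of reporter transcripts after 24 h compound treatment. Human HepG2 carries transfected zebrafish ER2a-Gal4 chimera; 3 nM 6-alpha-fluorotestosterone plus 1.5 nM norgestrel present. Induction scored against DMSO.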

[18] = ATG_M_32_XSP2: Attagene TRANS-FACTORIAL Multi-Species (XSP2) HepG2 Assay for M19 Transcription Factor (Internal Marker) (AID 2283826)
Procedure, shortened: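 HepG2 cells transiently transfected with GAL4-UAS reporter transcription units, dosed with compound for 24 h in presence of 3 nM 6-alpha-fluorotestosterone and 1.5 nM norgestrel; reporter mRNA quantified by RT-PCR, FAM labelling, HpaI digestion and capillary electrophoresis.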

[19] = target: human Vascular Endothelial Growth Factor Receptor 3 (VEGFR3), FLT4 (gene 2324) (UniProt P35916); assay: NVS_ENZ_hVEGFR3: NovaScreen (NVS) Enzymatic Assay for human Vascular Endothelial Growth Factor Receptor 3 (VEGFR3) (AID 2283229)
Procedure, shortened: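 Chemicals first run in duplicate at 25 uM, with actives re-tested in concentration series to a top of 50 uM. Recombinant VEGFR3 activity measured after 1 h via fluorescence with mobility-shift product separation; inhibition fitted relative to DMSO.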

[20] = target: human Protein Tyrosine Phosphatase Receptor Type F (PTPRF), PTPRF (gene 5792) (UniProt P10586); assay: NVS_ENZ_hPTPRF: NovaScreen (NVS) Enzymatic Assay for human Protein Tyrosine Phosphatase Receptor Type F (PTPRF) (AID 2283213)
Procedure, shortened: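 Cell-free fluorescence enzyme assay with recombinant protein and substrate; product separated by electrophoretic mobility shift. Read 1 h after dosing, single 25 uM duplicate screen, then concentration-response up to 50 uM; loss of signal vs DMSO.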

CCNC(=O)NC(=O)C(C#N)=NOC
AC50 [1]: inconclusive: 0.595 µM
AC50 [2]: inconclusive: 25 µM

CC(=NC#N)N(C)Cc1ccc(Cl)nc1
AC50 [3]: active: 8.03 µM

CNC(=O)CSP(=S)(OC)OC
outcome [4]: inactive

c1ccc(OP(Oc2ccccc2)Oc2ccccc2)cc1
outcome [5]: inactive

CC(C)N(C(=O)SCC(Cl)=C(Cl)Cl)C(C)C
AC50 [1]: inconclusive: 25 µM
outcome [6]: inactive

CC(C)Nc1nc(Cl)nc(NC(C)C)n1
AC50 [7]: inconclusive: 12.5 µM

Fc1ccc(Oc2ccnc3cc(Cl)cc(Cl)c23)cc1
AC50 [5]: inconclusive: 25 µM

CCOC(=O)[C@]1(c2ccccc2)Oc2ccccc2[C@@H]1N
AC50 [8]: active: 7.49 µM

CCCCCCCCCCCC#N
outcome [9]: inactive

CCOC(=O)CC(SP(=O)(OC)OC)C(=O)OCC (stereo unspecified)
outcome [10]: inactive

CCCC(=NOCC)C1=C(O)CC(CC(C)SCC)CC1=O (stereo unspecified)
outcome [4]: inactive

Nc1nc(N)nc(NC2CC2)n1
AC50 [11]: inconclusive: 41.3 µM

Cc1ccc(C)c2ccccc12
outcome [12]: inactive

C[C@@H]1C[C@@H]([C@H](O)CC2CC(=O)NC(=O)C2)C(=O)[C@@H](C)C1
outcome [8]: inactive

O=[N+]([O-])c1ccc(Cl)cc1
AC50 [13]: inconclusive: 25 µM
AC50 [14]: inconclusive: 6.73 µM
outcome [15]: inactive

c1ccc(C2CO2)cc1 (stereo unspecified)
AC50 [6]: inconclusive: 0.146 µM

N#CC(Br)Br
AC50 [3]: inconclusive: 0.943 µM

Nc1ccc(-c2ccc(N)c(N)c2)cc1N
AC50 [9]: active: 6.79 µM

N#Cc1ccc(N(CC(N)=O)CC(F)(F)F)cc1C(F)(F)F
outcome [16]: inactive

CCC(=O)Nc1ccc(Cl)c(Cl)c1
AC50 [17]: inconclusive: 100 µM
AC50 [18]: inconclusive: 24.3 µM

CC(Cc1ccc(C(C)(C)C)cc1)CN1C[C@@H](C)O[C@@H](C)C1 (stereo partly specified)
outcome [19]: inactive

Oc1ccccc1Cl
AC50 [11]: inconclusive: 0.258 µM

O=C(O)C(F)(F)C(F)(F)C(F)(F)C(F)(F)C(F)(F)C(F)(F)C(F)(F)F
outcome [10]: inactive
AC50 [20]: inconclusive: 25 µM
AC50 [15]: inconclusive: 25 µM
AC50 [17]: active: 100 µM

— PubChem BioAssay (EPA / NIEHS)
